# Test results from the supplement of paper PMC10849652.
# The chains behind the UniProt entries cited, without tags or fusion partners. Where a name states a change or a piece, a line headed by the entry shows the natural chain unless it says otherwise.
# UniProt Q96CD2: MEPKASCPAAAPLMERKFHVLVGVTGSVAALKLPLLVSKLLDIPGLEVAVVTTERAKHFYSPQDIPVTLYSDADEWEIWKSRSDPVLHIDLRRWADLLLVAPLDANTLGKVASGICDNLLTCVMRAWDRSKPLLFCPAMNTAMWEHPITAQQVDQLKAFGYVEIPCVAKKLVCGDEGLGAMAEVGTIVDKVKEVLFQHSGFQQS
# UniProt Q8TD55: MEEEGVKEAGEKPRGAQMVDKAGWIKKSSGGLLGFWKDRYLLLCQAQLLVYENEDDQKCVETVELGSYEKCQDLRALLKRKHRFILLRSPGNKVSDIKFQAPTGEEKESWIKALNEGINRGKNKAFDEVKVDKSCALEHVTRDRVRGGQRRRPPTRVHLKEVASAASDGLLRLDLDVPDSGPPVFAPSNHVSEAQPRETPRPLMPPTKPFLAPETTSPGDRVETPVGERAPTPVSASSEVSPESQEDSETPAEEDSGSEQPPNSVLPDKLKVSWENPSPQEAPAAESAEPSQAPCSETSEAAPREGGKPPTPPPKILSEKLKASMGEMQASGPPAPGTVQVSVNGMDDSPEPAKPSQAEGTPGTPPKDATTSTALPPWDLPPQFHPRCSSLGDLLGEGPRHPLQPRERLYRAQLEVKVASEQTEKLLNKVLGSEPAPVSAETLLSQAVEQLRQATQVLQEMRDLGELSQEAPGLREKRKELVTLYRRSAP
# UniProt Q6P1K2: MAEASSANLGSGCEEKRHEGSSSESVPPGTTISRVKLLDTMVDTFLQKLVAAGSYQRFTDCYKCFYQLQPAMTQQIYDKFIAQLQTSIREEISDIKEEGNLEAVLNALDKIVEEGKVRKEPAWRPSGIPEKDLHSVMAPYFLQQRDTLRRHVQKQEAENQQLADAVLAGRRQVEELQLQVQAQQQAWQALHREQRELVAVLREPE
# UniProt O14802: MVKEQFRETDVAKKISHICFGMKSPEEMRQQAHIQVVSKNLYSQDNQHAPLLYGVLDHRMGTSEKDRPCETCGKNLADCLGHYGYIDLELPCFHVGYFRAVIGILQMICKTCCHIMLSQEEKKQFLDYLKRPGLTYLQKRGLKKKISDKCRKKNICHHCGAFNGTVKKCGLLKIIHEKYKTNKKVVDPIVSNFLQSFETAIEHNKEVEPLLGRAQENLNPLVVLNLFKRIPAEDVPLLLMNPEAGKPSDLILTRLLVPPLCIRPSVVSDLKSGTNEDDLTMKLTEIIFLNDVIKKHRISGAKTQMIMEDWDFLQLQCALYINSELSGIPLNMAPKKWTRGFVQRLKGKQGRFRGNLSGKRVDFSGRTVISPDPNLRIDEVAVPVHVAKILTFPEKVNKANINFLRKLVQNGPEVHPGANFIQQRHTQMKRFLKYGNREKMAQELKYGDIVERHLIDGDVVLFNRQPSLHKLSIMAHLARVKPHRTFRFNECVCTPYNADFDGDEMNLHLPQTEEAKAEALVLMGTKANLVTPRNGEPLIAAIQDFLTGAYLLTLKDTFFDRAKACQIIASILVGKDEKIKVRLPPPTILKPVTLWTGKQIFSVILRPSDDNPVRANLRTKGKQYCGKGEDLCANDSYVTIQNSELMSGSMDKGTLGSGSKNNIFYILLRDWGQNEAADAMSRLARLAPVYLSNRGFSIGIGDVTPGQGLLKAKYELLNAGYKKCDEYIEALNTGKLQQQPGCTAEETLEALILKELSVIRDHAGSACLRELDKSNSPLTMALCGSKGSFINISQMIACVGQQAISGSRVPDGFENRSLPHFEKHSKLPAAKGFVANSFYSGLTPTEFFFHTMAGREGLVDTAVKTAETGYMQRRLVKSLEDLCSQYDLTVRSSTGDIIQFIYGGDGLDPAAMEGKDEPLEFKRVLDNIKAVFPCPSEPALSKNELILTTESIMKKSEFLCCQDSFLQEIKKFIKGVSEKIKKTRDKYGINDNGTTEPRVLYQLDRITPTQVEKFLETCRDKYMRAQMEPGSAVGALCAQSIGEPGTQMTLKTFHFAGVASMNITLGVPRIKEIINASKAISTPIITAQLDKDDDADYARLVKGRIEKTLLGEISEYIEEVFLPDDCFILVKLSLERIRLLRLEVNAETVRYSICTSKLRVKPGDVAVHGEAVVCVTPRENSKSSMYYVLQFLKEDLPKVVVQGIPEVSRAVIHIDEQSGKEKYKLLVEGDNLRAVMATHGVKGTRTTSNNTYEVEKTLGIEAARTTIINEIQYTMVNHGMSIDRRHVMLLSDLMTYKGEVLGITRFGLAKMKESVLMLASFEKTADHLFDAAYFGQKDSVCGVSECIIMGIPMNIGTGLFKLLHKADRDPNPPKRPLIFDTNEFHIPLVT
# UniProt Q9NR33: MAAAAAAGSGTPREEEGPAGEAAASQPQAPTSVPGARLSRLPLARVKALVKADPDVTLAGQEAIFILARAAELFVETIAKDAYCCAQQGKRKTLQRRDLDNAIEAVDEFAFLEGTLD
# UniProt P09884: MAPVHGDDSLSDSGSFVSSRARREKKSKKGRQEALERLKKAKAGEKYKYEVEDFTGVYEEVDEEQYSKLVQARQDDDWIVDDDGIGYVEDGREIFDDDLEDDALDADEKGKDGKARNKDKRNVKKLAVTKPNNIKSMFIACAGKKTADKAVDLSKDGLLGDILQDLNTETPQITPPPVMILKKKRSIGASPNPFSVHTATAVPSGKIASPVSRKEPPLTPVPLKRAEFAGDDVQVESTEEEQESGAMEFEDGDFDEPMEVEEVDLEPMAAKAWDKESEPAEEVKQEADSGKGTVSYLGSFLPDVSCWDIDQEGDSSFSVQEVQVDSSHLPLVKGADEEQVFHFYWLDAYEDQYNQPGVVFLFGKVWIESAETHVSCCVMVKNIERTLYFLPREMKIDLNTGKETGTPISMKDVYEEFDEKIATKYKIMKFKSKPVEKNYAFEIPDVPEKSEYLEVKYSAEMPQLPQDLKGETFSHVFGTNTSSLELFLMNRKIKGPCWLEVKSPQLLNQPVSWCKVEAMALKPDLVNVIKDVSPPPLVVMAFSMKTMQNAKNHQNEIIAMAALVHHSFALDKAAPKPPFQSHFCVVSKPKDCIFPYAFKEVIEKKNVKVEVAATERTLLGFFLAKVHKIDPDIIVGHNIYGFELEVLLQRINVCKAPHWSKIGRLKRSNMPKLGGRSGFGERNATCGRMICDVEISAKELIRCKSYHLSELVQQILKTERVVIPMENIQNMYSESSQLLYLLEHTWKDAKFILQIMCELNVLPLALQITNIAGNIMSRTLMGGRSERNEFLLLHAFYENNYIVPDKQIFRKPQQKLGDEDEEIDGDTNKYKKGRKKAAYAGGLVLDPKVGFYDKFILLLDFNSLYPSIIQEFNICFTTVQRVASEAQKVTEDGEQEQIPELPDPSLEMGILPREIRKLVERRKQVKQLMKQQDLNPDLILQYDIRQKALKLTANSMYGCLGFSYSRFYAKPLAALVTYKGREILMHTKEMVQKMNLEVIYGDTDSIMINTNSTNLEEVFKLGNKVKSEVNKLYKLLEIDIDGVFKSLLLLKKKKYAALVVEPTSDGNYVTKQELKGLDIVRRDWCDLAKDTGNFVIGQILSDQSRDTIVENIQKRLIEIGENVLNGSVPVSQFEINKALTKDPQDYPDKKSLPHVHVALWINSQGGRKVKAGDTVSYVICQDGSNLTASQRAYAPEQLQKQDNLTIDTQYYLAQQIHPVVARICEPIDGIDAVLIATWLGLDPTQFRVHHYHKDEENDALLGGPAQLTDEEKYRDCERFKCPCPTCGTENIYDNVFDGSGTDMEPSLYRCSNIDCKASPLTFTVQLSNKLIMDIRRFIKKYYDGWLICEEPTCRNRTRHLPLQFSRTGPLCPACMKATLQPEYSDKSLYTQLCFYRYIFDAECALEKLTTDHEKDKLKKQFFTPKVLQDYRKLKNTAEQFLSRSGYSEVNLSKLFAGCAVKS
# UniProt Q96AD5: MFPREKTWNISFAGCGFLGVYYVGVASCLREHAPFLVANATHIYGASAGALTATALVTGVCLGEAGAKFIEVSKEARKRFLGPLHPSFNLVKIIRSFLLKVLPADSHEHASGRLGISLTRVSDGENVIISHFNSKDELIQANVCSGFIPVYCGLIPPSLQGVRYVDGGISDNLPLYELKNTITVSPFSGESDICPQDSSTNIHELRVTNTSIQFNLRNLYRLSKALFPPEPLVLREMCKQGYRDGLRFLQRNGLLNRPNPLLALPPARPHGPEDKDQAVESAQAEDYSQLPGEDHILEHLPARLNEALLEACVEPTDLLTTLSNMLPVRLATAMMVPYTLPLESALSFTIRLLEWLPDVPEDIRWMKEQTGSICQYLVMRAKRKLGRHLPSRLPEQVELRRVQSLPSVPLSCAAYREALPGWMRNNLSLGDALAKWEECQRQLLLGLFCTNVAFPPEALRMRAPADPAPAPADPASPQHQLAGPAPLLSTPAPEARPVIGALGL
# UniProt Q13136: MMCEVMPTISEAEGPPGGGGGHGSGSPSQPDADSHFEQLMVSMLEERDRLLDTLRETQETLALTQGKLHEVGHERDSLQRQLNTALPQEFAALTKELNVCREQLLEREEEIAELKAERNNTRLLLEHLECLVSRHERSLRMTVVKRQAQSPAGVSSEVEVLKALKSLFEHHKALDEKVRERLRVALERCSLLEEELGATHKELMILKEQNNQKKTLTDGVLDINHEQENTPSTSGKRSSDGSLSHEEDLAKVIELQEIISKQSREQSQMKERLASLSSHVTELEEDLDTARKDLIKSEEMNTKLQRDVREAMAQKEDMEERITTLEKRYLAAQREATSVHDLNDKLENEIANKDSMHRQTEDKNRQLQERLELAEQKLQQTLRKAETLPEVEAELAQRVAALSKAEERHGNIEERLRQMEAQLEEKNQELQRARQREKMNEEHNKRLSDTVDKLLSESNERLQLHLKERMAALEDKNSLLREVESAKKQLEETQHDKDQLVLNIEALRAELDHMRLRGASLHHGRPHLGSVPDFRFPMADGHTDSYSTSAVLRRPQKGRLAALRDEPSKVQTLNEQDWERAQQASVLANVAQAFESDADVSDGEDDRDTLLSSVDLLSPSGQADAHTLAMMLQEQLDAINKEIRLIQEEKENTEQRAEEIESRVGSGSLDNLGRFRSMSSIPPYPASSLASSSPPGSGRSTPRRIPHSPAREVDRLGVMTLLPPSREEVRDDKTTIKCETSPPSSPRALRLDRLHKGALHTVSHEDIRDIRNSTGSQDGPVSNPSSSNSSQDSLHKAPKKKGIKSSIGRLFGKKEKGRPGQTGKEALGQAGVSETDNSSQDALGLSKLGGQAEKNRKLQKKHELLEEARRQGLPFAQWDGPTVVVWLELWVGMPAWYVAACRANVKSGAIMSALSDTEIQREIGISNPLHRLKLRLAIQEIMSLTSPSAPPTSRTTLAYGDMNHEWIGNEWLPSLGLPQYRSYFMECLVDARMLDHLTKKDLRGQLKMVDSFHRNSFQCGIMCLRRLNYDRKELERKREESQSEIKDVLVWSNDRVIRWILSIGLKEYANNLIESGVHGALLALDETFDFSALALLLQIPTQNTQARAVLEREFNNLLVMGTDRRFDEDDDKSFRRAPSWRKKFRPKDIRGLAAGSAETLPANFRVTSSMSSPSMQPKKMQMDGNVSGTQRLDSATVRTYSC
# UniProt O95707: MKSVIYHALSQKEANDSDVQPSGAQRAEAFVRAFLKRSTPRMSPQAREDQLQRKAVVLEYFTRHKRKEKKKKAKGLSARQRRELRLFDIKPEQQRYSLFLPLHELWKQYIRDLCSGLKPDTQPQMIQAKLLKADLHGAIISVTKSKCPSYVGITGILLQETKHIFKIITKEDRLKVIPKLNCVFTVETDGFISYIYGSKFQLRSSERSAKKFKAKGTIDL
# UniProt O60568: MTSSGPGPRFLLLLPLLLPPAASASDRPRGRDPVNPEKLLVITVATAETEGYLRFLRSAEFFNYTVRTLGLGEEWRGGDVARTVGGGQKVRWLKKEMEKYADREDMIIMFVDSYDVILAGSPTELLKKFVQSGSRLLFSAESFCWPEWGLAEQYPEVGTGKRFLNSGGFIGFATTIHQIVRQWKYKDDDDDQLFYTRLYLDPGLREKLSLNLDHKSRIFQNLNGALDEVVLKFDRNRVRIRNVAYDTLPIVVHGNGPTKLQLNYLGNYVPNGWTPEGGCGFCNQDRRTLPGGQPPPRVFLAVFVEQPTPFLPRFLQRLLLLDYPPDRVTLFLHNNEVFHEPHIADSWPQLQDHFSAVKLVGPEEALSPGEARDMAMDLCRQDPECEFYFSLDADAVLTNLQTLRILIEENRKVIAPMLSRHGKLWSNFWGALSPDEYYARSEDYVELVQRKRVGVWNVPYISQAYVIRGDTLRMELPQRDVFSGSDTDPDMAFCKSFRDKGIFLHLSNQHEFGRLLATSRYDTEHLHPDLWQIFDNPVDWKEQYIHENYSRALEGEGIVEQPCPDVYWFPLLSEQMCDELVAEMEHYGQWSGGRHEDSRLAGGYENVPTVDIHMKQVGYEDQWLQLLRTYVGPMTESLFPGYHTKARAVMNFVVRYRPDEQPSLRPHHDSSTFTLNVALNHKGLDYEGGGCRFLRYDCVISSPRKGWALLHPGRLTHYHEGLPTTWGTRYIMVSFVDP
# The list shows a part of the results.
# Columns and labels:
# Experiment in all cases: log2 fold change, soluble protein after heating vs DMSO (PISA); higher = thermal stabilisation; K562 lysate, 10 uM; active = over 0.2 and 3.5 SD of the protein, either way, in both replicates (recomputed)
# [1] = compound: CS(=O)(=O)CCNCc1ccc(-c2ccc3ncnc(Nc4ccc(OCc5cccc(F)c5)c(Cl)c4)c3c2)o1 [lapatinib]
# How it was run: (§1)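 K562 pellets were dounce-homogenised in PBS pH 7.4 containing 1 mM MgCl2, and the crude extract, at 1 mg/mL protein, was exposed to 10 μM compound for 30 min. Aliquots were heated for 3 min across 48°C-58°C, pooled, brought to 0.5% NP-40 at 4°C and spun at 21,000xg for 90 min, with the supernatant taken as soluble protein. TMTpro 16plex LC-MS/MS with equalised channel sums quantified that protein. Values are log-two fold changes in thermal stability relative to solvent controls, taken from duplicates.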
# [2] = compound: CS(=O)(=O)N1CCN(Cc2cc3nc(-c4cccc5[nH]ncc45)nc(N4CCOCC4)c3s2)CC1 [pictilisib]
# How it was run: as §1
# [3] = compound: C[C@@H](Oc1cc(-c2cnn(C3CCNCC3)c2)cnc1N)c1c(Cl)ccc(F)c1Cl [crizotinib]
# How it was run: as §1
# [4] = compound: C[C@H](C1=CC=C(C=C1)C(=O)NC2=C3C=CNC3=NC=C2)N
# How it was run: as §1
# [5] = compound: C[C@H](Nc1ncnc2nc[nH]c12)c1cc2cccc(Cl)c2c(=O)n1-c1ccccc1 [duvelisib]
# How it was run: as §1
# [6] = compound: Cc1cc(Nc2cc(CN3CCOCC3)c3nc(C)c(Cc4ccc(Cl)cc4F)n3n2)n[nH]1 [gandotinib]
# How it was run: as §1
# [7] = compound: Cc1cc(Nc2cc(N3CCN(C)CC3)nc(Sc3ccc(NC(=O)C4CC4)cc3)n2)n[nH]1 [tozasertib]
# How it was run: as §1
# [8] = compound: Cc1ccc(-n2nc(C(C)(C)C)cc2NC(=O)Nc2ccc(OCCN3CCOCC3)c3ccccc23)cc1 [doramapimod]
# How it was run: as §1
# [9] = compound: Cc1ccc(NC(=O)c2ccc(CN3CC[C@H](N(C)C)C3)c(C(F)(F)F)c2)cc1Nc1nccc(-c2cncnc2)n1 [bafetinib]
# How it was run: as §1
# [10] = compound: Cc1cccc(CC(=O)N2CCc3c2ccc(-c2cn(C)c4ncnc(N)c24)c3F)n1
# How it was run: as §1
Target,log2 fold change [1],log2 fold change [2],log2 fold change [3],log2 fold change [4],log2 fold change [5],log2 fold change [6],log2 fold change [7],log2 fold change [8],log2 fold change [9],log2 fold change [10]
PLXNA1 (UniProt Q9UIW2),inactive: -0.014,inactive: -0.019,inactive: 0.02,inactive: -0.024,inactive: 0.034,inactive: 0.003,inactive: -0.018,inactive: -0.009,inactive: -0.021,inactive: 0.056
POLR3C (UniProt Q9BUI4),inactive: -0.028,inactive: -0.005,inactive: 0.005,inactive: -0.032,inactive: -0.042,inactive: -0.017,inactive: -0.009,inactive: 0.053,inactive: -0.02,inactive: -0.006
PPCDC (UniProt Q96CD2),inactive: -0.023,inactive: -0.176,inactive: 0,active: -0.342,inactive: 0.062,inactive: 0.152,inactive: 0,inactive: 0.024,inactive: 0.034,inactive: 0.19
PLXNB2 (UniProt O15031),inactive: -0.033,inactive: -0.068,inactive: -0.014,inactive: -0.019,inactive: 0.031,inactive: -0.046,inactive: 0.027,inactive: -0.044,inactive: -0.004,inactive: 0.031
PLEKHO2 (UniProt Q8TD55),inactive: 0.045,inactive: 0.184,inactive: 0.057,inactive: 0.039,inactive: 0.062,inactive: -0.018,inactive: -0.137,inactive: 0.005,inactive: -0.193,inactive: 0.07
PMF1 (UniProt Q6P1K2),inactive: 0.015,inactive: 0.032,inactive: 0.018,inactive: 0.117,inactive: 0.04,inactive: -0.062,inactive: 0.051,inactive: 0.026,inactive: -0.01,inactive: -0.111
PLG (UniProt P00747),inactive: -0.049,inactive: -0.033,inactive: 0.055,inactive: -0.027,inactive: 0.252,inactive: 0.039,inactive: -0.043,inactive: -0.036,inactive: -0.028,inactive: 0.05
PLRG1 (UniProt O43660),inactive: 0.019,inactive: 0.036,inactive: 0.003,inactive: -0.091,inactive: -0.001,inactive: 0.037,inactive: 0,inactive: 0.011,inactive: -0.012,inactive: 0.04
POLR3A (UniProt O14802),inactive: -0.024,inactive: -0.01,inactive: -0.002,inactive: -0.081,inactive: 0.015,inactive: 0.005,inactive: 0.006,inactive: -0.007,inactive: -0.024,inactive: 0.068
POLR2M (UniProt P0CAP2),inactive: -0.034,inactive: -0.055,inactive: 0.016,inactive: -0.031,inactive: 0.015,inactive: 0.02,inactive: 0.185,inactive: 0.009,inactive: -0.011,inactive: 0.041
PPFIA2 (UniProt O75334),inactive: -0.014,inactive: 0.031,inactive: -0.212,active: -0.244,inactive: 0.001,inactive: 0.139,inactive: -0.028,inactive: 0.023,inactive: 0.019,inactive: 0.147
POLR3E (UniProt Q9NVU0),inactive: -0.014,inactive: -0.001,inactive: 0.003,inactive: -0.001,inactive: 0.01,inactive: -0.028,inactive: -0.011,inactive: -0.001,inactive: -0.018,inactive: 0.013
POM121 (UniProt Q96HA1),inactive: -0.057,inactive: -0.094,inactive: 0.013,inactive: -0.062,inactive: 0.001,inactive: 0.077,inactive: 0.01,inactive: -0.058,inactive: 0.129,inactive: 0.049
PMPCA (UniProt Q10713),inactive: -0.02,inactive: -0.043,inactive: -0.048,inactive: -0.053,inactive: 0.053,inactive: -0.004,inactive: 0.016,inactive: 0.079,inactive: 0.046,inactive: 0.025
POC5 (UniProt Q8NA72),inactive: -0.133,inactive: -0.12,inactive: 0.02,inactive: 0.022,inactive: -0.041,inactive: 0.107,inactive: -0.086,inactive: -0.023,inactive: 0.051,inactive: 0.031
POLE4 (UniProt Q9NR33),inactive: -0.013,inactive: -0.071,inactive: 0.097,inactive: -0.001,inactive: 0.005,inactive: 0.049,inactive: 0.029,inactive: 0.05,inactive: -0.161,inactive: -0.006
POLE2 (UniProt P56282),inactive: 0.151,inactive: -0.124,inactive: -0.047,inactive: -0.111,inactive: -0.001,inactive: 0.044,inactive: 0.025,inactive: 0.016,inactive: -0.008,inactive: 0
POLA1 (UniProt P09884),inactive: -0.022,inactive: -0.044,inactive: -0.03,inactive: -0.011,inactive: 0.009,inactive: -0.016,inactive: 0.003,inactive: 0.01,inactive: -0.057,inactive: 0.004
PNPLA2 (UniProt Q96AD5),inactive: 0.019,inactive: -0.052,inactive: -0.04,inactive: -0.003,inactive: -0.013,inactive: -0.075,inactive: 0.001,inactive: -0.026,inactive: -0.057,inactive: 0.03
PPFIA1 (UniProt Q13136),inactive: 0.017,inactive: -0.013,inactive: 0.024,inactive: -0.062,inactive: 0.028,inactive: -0.002,inactive: 0.022,inactive: -0.01,inactive: -0.051,inactive: 0.078
POP4 (UniProt O95707),inactive: 0.004,inactive: 0.02,inactive: 0.016,inactive: 0.002,inactive: 0.029,inactive: 0.044,inactive: 0.011,inactive: -0.013,inactive: 0.035,inactive: -0.029
POLB (UniProt P06746),inactive: 0.017,inactive: 0.075,inactive: -0.003,inactive: 0.011,inactive: 0.018,inactive: -0.041,inactive: -0.015,inactive: -0.003,inactive: -0.024,inactive: -0.009
POLD1 (UniProt P28340),inactive: -0.014,inactive: -0.021,inactive: -0.022,inactive: 0.013,inactive: -0.019,inactive: -0.061,inactive: 0.003,inactive: 0.02,inactive: -0.022,inactive: 0.017
PLIN2 (UniProt Q99541),inactive: -0.009,inactive: -0.041,inactive: -0.038,inactive: 0.023,inactive: 0.014,active: -0.254,inactive: 0.096,inactive: -0.003,inactive: -0.067,inactive: 0.011
POLR2E (UniProt P19388),inactive: -0.027,inactive: 0.03,inactive: 0,inactive: 0.004,inactive: -0.019,inactive: -0.034,inactive: 0.004,inactive: -0.041,inactive: -0.059,inactive: 0.029
PPIB (UniProt P23284),inactive: -0.021,inactive: -0.002,inactive: 0.016,inactive: -0.014,inactive: 0.002,inactive: 0.002,inactive: 0.022,inactive: -0.02,inactive: -0.025,inactive: -0.014
POLR3G (UniProt O15318),inactive: -0.019,inactive: 0.044,inactive: -0.017,inactive: -0.004,inactive: 0.006,inactive: 0.107,inactive: -0.009,inactive: -0.009,inactive: -0.087,inactive: 0.047
POTEI (UniProt P0CG38),inactive: -0.016,inactive: -0.022,inactive: -0.037,inactive: 0.01,inactive: -0.03,inactive: 0.053,inactive: -0.015,inactive: 0.073,inactive: -0.056,inactive: -0.09
"POLR2A, A0A590UJN4",inactive: -0.023,inactive: -0.022,inactive: -0.042,inactive: -0.011,inactive: -0.014,inactive: -0.034,inactive: -0.015,inactive: -0.041,inactive: -0.034,inactive: 0.067
PLOD3 (UniProt O60568),inactive: -0.024,inactive: -0.023,inactive: 0.026,inactive: 0.003,inactive: -0.018,inactive: -0.018,inactive: 0.074,inactive: 0.021,inactive: 0.017,inactive: 0.006

# Retrieved one by one from above, two records:
Target,log2 fold change [1],log2 fold change [2],log2 fold change [3],log2 fold change [4],log2 fold change [5],log2 fold change [6],log2 fold change [7],log2 fold change [8],log2 fold change [9],log2 fold change [10]
POM121 (UniProt Q96HA1),inactive: -0.057,inactive: -0.094,inactive: 0.013,inactive: -0.062,inactive: 0.001,inactive: 0.077,inactive: 0.01,inactive: -0.058,inactive: 0.129,inactive: 0.049
PMF1 (UniProt Q6P1K2),inactive: 0.015,inactive: 0.032,inactive: 0.018,inactive: 0.117,inactive: 0.04,inactive: -0.062,inactive: 0.051,inactive: 0.026,inactive: -0.01,inactive: -0.111
